Data as given in the supplement of paper PMC10849652.
This is one part of the list.

Amino acid sequences for entries named in this document (tags omitted). A change or cut given only in a name is not applied to a line headed by its entry.
UniProt P13807: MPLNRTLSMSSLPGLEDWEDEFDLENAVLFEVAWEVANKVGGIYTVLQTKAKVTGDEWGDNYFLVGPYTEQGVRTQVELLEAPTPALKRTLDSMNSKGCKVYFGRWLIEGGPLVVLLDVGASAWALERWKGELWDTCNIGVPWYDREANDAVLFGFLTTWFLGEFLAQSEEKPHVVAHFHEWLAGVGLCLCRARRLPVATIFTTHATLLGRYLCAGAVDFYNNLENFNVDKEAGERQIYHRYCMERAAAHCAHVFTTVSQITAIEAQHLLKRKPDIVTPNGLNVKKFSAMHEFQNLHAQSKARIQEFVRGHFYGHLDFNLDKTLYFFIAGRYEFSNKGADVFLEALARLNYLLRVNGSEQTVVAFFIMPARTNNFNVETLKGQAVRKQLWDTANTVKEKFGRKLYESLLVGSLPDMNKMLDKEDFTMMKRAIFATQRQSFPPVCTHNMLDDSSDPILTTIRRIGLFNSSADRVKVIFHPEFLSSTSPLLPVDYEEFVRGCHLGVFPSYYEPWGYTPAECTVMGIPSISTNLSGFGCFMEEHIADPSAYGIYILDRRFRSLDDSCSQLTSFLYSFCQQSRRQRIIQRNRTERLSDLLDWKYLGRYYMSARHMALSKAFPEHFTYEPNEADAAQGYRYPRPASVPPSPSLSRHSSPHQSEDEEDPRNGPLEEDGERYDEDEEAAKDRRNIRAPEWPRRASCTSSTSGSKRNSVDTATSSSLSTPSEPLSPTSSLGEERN
UniProt P69905, whole entry, looked up: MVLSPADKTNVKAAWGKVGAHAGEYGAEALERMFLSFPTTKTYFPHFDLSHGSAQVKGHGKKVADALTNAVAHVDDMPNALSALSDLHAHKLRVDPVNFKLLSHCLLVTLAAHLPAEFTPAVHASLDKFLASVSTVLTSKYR
UniProt P16403, whole entry, looked up: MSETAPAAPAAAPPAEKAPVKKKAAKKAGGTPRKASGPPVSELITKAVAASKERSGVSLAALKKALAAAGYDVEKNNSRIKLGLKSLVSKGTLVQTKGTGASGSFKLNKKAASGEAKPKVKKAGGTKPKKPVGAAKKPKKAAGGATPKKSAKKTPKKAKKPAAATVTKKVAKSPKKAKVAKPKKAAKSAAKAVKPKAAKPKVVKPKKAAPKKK
UniProt Q9NRZ9: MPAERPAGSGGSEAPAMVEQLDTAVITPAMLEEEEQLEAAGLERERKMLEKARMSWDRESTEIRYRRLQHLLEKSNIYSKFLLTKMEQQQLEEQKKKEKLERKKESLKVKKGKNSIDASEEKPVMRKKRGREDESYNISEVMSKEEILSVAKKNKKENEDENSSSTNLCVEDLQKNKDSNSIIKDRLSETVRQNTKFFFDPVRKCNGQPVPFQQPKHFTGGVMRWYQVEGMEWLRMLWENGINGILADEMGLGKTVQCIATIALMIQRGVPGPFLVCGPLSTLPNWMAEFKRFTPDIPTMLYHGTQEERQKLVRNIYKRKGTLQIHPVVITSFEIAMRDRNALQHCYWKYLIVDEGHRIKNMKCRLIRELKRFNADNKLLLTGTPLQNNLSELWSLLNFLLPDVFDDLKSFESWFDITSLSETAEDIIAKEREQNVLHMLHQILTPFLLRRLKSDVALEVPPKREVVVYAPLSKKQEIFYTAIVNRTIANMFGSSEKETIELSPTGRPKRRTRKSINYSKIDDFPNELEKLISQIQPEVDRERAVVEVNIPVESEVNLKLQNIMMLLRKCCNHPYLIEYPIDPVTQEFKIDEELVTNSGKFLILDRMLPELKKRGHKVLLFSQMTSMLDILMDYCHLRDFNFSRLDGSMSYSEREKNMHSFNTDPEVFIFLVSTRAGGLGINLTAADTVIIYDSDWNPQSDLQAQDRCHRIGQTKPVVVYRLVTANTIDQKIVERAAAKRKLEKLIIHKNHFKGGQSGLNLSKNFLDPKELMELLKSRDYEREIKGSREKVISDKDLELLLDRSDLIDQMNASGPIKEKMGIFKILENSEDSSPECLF
UniProt Q8WW33: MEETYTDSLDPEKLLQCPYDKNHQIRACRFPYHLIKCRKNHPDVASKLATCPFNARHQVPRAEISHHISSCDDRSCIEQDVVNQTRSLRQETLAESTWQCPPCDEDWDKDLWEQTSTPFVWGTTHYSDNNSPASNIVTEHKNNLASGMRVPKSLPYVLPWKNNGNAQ
UniProt Q16836: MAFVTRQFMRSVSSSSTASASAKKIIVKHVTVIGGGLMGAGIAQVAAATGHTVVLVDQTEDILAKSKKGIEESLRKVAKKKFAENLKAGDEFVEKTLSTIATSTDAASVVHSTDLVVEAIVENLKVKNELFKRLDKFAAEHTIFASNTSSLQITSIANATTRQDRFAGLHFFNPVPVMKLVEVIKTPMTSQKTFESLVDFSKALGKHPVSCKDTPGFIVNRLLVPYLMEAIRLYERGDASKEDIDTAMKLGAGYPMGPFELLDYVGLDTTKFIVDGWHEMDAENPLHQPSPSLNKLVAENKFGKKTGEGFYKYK
UniProt Q9H0R4: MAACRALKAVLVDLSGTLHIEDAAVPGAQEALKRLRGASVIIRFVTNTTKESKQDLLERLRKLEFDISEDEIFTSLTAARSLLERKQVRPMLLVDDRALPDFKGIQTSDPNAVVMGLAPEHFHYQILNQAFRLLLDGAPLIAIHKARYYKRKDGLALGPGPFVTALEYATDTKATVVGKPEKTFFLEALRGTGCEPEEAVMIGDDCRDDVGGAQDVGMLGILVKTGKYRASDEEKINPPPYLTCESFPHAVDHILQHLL
UniProt P02724: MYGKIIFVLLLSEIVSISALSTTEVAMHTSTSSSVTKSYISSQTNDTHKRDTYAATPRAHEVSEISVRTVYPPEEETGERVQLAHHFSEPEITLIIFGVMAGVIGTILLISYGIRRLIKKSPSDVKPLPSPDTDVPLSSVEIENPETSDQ
UniProt Q9H6D7: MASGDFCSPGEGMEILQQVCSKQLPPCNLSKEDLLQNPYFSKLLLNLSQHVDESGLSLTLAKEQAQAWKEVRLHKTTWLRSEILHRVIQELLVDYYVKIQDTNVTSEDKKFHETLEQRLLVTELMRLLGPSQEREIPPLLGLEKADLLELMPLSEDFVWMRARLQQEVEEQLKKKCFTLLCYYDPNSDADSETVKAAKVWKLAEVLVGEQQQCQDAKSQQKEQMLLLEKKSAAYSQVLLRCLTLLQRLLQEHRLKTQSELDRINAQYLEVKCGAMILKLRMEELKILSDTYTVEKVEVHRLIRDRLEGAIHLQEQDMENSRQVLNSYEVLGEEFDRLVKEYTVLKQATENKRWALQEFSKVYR
UniProt O94992, whole entry, looked up: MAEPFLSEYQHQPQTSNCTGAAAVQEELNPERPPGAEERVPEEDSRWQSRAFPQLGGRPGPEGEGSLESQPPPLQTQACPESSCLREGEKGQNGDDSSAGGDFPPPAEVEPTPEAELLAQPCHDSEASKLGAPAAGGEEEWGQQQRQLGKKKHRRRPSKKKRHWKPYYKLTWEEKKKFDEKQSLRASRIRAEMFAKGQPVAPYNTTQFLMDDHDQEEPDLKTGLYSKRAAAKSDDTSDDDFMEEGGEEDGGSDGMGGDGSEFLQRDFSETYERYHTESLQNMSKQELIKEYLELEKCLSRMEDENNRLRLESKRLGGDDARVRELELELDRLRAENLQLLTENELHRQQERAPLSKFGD
UniProt P53701: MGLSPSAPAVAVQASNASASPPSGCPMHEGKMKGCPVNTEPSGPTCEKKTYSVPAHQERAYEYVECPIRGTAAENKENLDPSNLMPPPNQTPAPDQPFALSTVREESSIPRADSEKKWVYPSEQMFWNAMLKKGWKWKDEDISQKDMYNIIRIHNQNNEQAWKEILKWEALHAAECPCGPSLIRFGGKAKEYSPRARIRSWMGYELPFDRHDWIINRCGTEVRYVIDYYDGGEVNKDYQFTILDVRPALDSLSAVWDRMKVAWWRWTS
UniProt Q9P2D3: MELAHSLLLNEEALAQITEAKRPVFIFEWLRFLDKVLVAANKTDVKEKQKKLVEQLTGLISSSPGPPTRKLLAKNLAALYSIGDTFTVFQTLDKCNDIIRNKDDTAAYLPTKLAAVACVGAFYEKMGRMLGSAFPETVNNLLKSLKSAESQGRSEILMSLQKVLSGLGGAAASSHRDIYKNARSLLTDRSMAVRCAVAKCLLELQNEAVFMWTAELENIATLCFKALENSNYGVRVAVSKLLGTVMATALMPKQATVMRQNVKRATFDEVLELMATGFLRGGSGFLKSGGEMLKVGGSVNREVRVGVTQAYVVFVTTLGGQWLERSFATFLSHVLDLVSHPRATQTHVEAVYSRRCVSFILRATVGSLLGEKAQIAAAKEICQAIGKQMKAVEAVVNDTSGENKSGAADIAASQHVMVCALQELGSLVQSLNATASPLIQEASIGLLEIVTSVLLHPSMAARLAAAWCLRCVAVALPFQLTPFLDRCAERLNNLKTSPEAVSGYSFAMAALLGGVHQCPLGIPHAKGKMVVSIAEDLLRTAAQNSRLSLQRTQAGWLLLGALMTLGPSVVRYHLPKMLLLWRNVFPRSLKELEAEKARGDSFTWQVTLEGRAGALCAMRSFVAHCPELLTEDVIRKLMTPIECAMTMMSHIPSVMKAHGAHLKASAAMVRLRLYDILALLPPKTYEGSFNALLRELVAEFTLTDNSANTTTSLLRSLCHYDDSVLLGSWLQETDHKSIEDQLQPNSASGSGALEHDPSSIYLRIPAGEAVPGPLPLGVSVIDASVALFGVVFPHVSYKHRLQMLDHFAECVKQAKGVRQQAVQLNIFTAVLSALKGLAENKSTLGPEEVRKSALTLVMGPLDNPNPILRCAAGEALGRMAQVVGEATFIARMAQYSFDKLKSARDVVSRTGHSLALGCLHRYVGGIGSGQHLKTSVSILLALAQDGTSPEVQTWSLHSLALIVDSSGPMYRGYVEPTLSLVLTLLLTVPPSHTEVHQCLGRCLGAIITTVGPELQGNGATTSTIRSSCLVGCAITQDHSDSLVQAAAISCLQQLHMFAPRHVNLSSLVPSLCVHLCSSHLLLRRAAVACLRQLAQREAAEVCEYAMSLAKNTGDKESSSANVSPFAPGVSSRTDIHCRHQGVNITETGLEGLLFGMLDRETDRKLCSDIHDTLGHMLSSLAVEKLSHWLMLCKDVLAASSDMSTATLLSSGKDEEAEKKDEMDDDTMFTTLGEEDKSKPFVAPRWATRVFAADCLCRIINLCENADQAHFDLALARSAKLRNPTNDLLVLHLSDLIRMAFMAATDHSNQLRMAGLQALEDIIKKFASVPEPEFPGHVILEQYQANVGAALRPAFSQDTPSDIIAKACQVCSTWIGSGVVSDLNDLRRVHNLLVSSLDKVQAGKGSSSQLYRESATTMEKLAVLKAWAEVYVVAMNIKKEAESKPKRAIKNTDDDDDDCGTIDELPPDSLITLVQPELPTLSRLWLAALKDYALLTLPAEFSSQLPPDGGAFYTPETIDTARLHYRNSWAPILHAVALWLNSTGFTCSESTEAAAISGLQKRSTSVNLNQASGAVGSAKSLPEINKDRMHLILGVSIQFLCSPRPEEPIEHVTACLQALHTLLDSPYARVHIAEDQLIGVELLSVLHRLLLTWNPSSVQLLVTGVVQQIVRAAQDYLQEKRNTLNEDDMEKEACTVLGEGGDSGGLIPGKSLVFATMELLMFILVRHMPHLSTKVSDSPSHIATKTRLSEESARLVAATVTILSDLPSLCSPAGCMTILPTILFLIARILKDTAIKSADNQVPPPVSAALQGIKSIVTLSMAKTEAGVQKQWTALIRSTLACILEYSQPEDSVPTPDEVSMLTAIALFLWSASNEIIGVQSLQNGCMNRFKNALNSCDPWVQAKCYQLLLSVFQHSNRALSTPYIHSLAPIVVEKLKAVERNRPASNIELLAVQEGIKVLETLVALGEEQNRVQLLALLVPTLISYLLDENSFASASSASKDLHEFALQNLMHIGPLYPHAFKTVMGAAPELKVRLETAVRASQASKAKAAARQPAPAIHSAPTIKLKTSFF
UniProt Q8N4P3, whole entry, looked up: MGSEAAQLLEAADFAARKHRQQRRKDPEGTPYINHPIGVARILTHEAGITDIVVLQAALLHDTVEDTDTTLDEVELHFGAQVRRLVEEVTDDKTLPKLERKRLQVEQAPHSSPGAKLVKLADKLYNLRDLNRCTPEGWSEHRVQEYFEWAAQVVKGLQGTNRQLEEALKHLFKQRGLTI
UniProt P15170, whole entry, looked up: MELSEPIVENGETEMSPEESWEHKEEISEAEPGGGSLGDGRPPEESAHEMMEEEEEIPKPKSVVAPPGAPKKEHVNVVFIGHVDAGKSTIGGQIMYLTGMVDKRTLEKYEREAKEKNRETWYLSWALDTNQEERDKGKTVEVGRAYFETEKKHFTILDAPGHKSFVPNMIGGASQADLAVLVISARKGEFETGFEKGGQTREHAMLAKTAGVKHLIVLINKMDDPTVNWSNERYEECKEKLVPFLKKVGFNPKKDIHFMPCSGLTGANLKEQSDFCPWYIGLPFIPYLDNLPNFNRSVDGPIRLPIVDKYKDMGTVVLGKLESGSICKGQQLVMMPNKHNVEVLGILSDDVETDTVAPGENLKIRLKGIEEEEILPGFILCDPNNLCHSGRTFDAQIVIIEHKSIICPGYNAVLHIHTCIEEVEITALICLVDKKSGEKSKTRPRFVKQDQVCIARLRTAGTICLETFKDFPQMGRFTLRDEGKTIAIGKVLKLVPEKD

What follows are targets tested with Cc1cccc(CC(=O)N2CCc3c2ccc(-c2cn(C)c4ncnc(N)c24)c3F)n1 (assay: log2 fold change, soluble protein after heating vs DMSO (PISA); higher = thermal stabilisation; K562 cells, 10 uM, 30 min; active = over 0.2 and 3.5 SD of the protein, either way, in both replicates (recomputed)).
Procedure, shortened: (§1)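 Soluble protein was quantified by TMTpro 16plex LC-MS/MS after channel sums were equalised. It was obtained as the supernatant after 21,000xg for 90 min from pooled aliquots of K562 cells (2×10^6 cells/mL, 10 μM compound, 30 min) heated for 3 min across 48°C-58°C and extracted in PBS with 0.5% NP-40 at 4°C. Thermal stability values are relative to control samples and come from duplicates. They are given as log2 fold changes.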

Target	log2 fold change
HERC2 (UniProt O95714)	inactive: -0.085
HAX1 (UniProt O00165)	inactive: 0.029
HEBP2 (UniProt Q9Y5Z4)	inactive: -0.02
GYS1 (UniProt P13807)	inactive: 0.011
HBA1 (UniProt P69905)	inactive: 0.138
H1-2 (UniProt P16403)	inactive: -0.055
GTPBP3 isoform 2 (UniProt Q969Y2)	inactive: -0.039
HELLS (UniProt Q9NRZ9)	inactive: -0.04
GSKIP (UniProt Q9P0R6)	inactive: -0.081
HAT1 (UniProt O14929)	inactive: 0.017
GTSF1 (UniProt Q8WW33)	inactive: 0.01
HADH isoform 2 (UniProt Q16836)	inactive: 0.063
HDHD2 (UniProt Q9H0R4)	inactive: 0.018
HDAC6 (UniProt Q9UBN7)	inactive: -0.086
GSTP1 (UniProt P09211)	inactive: -0.021
H1FX (UniProt Q92522)	inactive: 0.048
HCLS1 (UniProt P14317)	inactive: -0.044
GYPA (UniProt P02724)	inactive: 0.017
HEXB (UniProt P07686)	inactive: -0.04
HAUS4 (UniProt Q9H6D7)	inactive: 0.023

Target	log2 fold change
HEBP1 (UniProt Q9NRV9)	inactive: -0.128
GXYLT1 (UniProt Q4G148)	inactive: 0.125
HEMGN (UniProt Q9BXL5)	inactive: -0.063
HBG1 (UniProt P69891)	inactive: 0.056
HEXIM1 (UniProt O94992)	inactive: -0.087
HCCS (UniProt P53701)	inactive: -0.053
GTPBP1 (UniProt O00178)	inactive: 0.037
GYG1 (UniProt P46976)	inactive: 0.035
GTF2A2 (UniProt P52657)	inactive: -0.036
HEATR5B (UniProt Q9P2D3)	inactive: 0.014
H2AZ1 (UniProt P0C0S5)	inactive: -0.204
GTF2F1 (UniProt P35269)	inactive: -0.014
GSK3B isoform 2 (UniProt P49841)	inactive: 0.055
HDDC3 (UniProt Q8N4P3)	inactive: -0.02
GSPT1 isoform 3 (UniProt P15170)	inactive: 0.014
HELZ (UniProt P42694)	inactive: -0.089
HBZ (UniProt P02008)	inactive: 0.037
HBS1L isoform 2 (UniProt Q9Y450)	inactive: 0.065
H1-3 (UniProt P16402)	inactive: -0.022

The targets below were run with Cc1cn(-c2cc(NC(=O)c3ccc(C)c(Nc4nccc(-c5cccnc5)n4)c3)cc(C(F)(F)F)c2)cn1 [nilotinib] in the same assay as above.
Procedure, shortened: as §1

Target	log2 fold change
HERC2 (UniProt O95714)	inactive: -0.015
HAX1 (UniProt O00165)	inactive: -0.113
HEBP2 (UniProt Q9Y5Z4)	inactive: -0.032
GYS1 (UniProt P13807)	inactive: 0.237
HBA1 (UniProt P69905)	inactive: 0.029
H1-2 (UniProt P16403)	inactive: 0.019
GTPBP3 isoform 2 (UniProt Q969Y2)	inactive: -0.028
GSKIP (UniProt Q9P0R6)	inactive: 0
HAT1 (UniProt O14929)	inactive: 0.004
GTSF1 (UniProt Q8WW33)	inactive: 0.074
HADH isoform 2 (UniProt Q16836)	inactive: 0.049
HDHD2 (UniProt Q9H0R4)	inactive: 0.024
HDAC6 (UniProt Q9UBN7)	inactive: 0.126
GSTP1 (UniProt P09211)	inactive: -0.018
H1FX (UniProt Q92522)	inactive: 0.035
HCLS1 (UniProt P14317)	inactive: 0.026
GYPA (UniProt P02724)	inactive: 0.384
HEXB (UniProt P07686)	inactive: 0.002
HAUS4 (UniProt Q9H6D7)	inactive: 0.08

Target	log2 fold change
HEBP1 (UniProt Q9NRV9)	inactive: 0.454
GXYLT1 (UniProt Q4G148)	inactive: 0.081
HEMGN (UniProt Q9BXL5)	inactive: -0.003
HBG1 (UniProt P69891)	inactive: 0.005
HEXIM1 (UniProt O94992)	inactive: 0.043
HCCS (UniProt P53701)	inactive: -0.026
GTPBP1 (UniProt O00178)	inactive: -0.158
GYG1 (UniProt P46976)	active: 0.635
GTF2A2 (UniProt P52657)	inactive: -0.025
HEATR5B (UniProt Q9P2D3)	inactive: -0.049
H2AZ1 (UniProt P0C0S5)	inactive: -0.138
GTF2F1 (UniProt P35269)	inactive: -0.014
GSK3B isoform 2 (UniProt P49841)	inactive: -0.04
HDDC3 (UniProt Q8N4P3)	inactive: -0.009
GSPT1 isoform 3 (UniProt P15170)	inactive: 0.057
HELZ (UniProt P42694)	inactive: 0.076
HBZ (UniProt P02008)	inactive: 0.018
HBS1L isoform 2 (UniProt Q9Y450)	inactive: -0.079
H1-3 (UniProt P16402)	inactive: 0.054
